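Whole-parasite assay of Trypanosoma brucei over 72 hours; the read-out is not stated. Tested at 30 µM. The record gives no direction; compounds that gave an IC50 in retests scored well above the rest, so higher reads as stronger inhibition. Values scatter widely below zero; nearly all retest evidence comes from the higher of the two concentrations used. About 64,000 compounds were tested under these conditions; 1.5% (about 940) showed 50% or more at least once.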

Each number is a percent effect as filed. How 0% and 100% were set is not recorded. Most values in the screen are low, and negative values occur. Compounds were drawn at random from those tested, without regard to their results.

compound	percent effect
CCN1CC2(CCC1=O)CCN(Cc1cccc(OC(F)F)c1)CC2	-25.64%
[H][C@]12CC[C@]([H])(CN(c3ncccn3)C1)N(CCC(=O)NCc1ccco1)C2	-12.1%
CC(C)CS(=O)(=O)N1CCC2(CN(c3cccc(F)c3)C(=O)CN2C)C1.O=C(O)C(F)(F)F (stereo unspecified)	-13.3%
CN(C)c1ccccc1CN1CCCC(N2CCCC2=O)C1 (stereo unspecified)	5.118%
Cc1oc(C(=O)O)cc1S(=O)(=O)Nc1cc(Cl)ccc1F	-5.187%
O=C(CCCOc1ccc(F)cc1F)N1CCCC1Cn1cccn1 (stereo unspecified)	31.91%
CC1CN(CC(=O)Nc2ccncc2)CCN1c1nccs1 (stereo unspecified)	13.69%
CC(=O)N[C@H]1CN(CC(=O)NCc2ccccc2C)C[C@@H]1C(C)C	-25.55%
CCc1nc(NS(=O)(=O)c2ccc(F)cc2C)no1	31.38%
O=C(O)C(F)(F)F.O=C(O)C(F)(F)F.O=C(O)C(F)(F)F.[H][C@@]12CCCO[C@]1([H])[C@H](Nc1ccccn1)CN(Cc1ccccn1)C2	20.76%
CCC(C)NC(=O)NCc1cc2n(n1)CCCN(C1CCCCC1)C2 (stereo unspecified)	-29.61%
CCOC(=O)c1nc(CN2CCN(C(C)C(=O)NC3CC3)CC2)cs1 (stereo unspecified)	-37.64%
Cc1ncsc1-c1nnc(C2CCN(Cc3ccc(F)cc3)CC2)o1	-21.24%
CC(=O)c1ccccc1-c1nc(CC2CCN(C)CC2)no1	-10.75%
CN(Cc1cn2c(n1)CN(C(=O)c1cccnc1)CC2)Cc1ccco1	-49.03%
COc1ccccc1OC1CN(C(=O)c2ccccc2C(C)=O)C1	-28.89%
CS(=O)(=O)N1CCC2(CC1)CC(CC(=O)N1CCCC1)c1ccccc12 (stereo unspecified)	8.085%
CCc1nn(C)c(Cl)c1CN1CCN(c2ccc(C(N)=O)cn2)CC1	2.553%
CCC1CN(C(=O)c2ccccc2C(C)=O)CCN1C(C)C (stereo unspecified)	-37.83%
Cc1nnc(NCC(c2ccco2)N(C)C)c(C#N)c1C (stereo unspecified)	-16.99%
CN(C)C(=O)Cc1ccc(NC(=O)c2cn(C)nn2)cc1	-31.83%
O=C(COc1ccc2c(c1)CCC2)N1CCCC1c1ccc[nH]1 (stereo unspecified)	-26.13%
[H][C@]12CN(C)CCN1C[C@@H](CO)[C@@H]2c1ccccc1	-8.827%
Cc1ncc2c(n1)CN(Cc1nc(-c3ccsc3)oc1C)CC2	-10.82%
Cc1nc(Nc2ccccn2)cc(C2CCCN2Cc2ncc[nH]2)n1 (stereo unspecified)	-13.4%
CCC(C(=O)NC1CCCC1)n1ccc2ncccc2c1=O (stereo unspecified)	7.327%
COc1cc(C(=O)N(Cc2ccco2)C2CC2)cc(OC)c1OC	-6.757%
Cc1noc(CN(Cc2ccc3c(c2)OCCO3)Cc2ccco2)n1	-4.178%
COCc1noc(-c2ccc(N(C)Cc3cc(C)no3)nc2)n1	9.651%
O=C(O)C(F)(F)F.O=C(O)C(F)(F)F.[H][C@@]12C[C@H](C(=O)NCC(C)C)[C@@]([H])(CN(Cc3cccnc3)C1)O2	-46.17%
COc1cccc(CN(C)CCCn2cnc3c(N)ncnc32)c1	-23.64%
Cc1ccc(-c2nc(CN3CCn4c(C)nnc4C3)cs2)o1	13.61%
CC(C(=O)Nc1nccs1)N(C)Cc1cccc(C#N)c1 (stereo unspecified)	-65.42%
CCC1CN(C(=O)c2cnc(-c3cnn(C)c3)s2)CCO1 (stereo unspecified)	-23.55%
CC(Cn1cccn1)NCc1csc(COc2ccc(F)cc2)n1 (stereo unspecified)	4.13%
CCS(=O)(=O)CCNC(=O)NCc1ccccc1-n1cccn1	11.96%
CCN(CCc1nc2cc(C)ccc2[nH]1)C(=O)[C@@H](N)Cc1c[nH]cn1	-49.32%
CCOc1ccc2cc(C(=O)NCCNc3ccc(C)nn3)[nH]c2c1	-48.96%
O=C(CNC(=O)c1ccccc1Cl)Nc1nccs1	-37.97%
COc1ccc(CNc2nnc(CC(C)(C)C)o2)cc1C#N	-15.74%
COC(=O)c1c(Cl)c(C)nc2onc(C)c12	-4.762%
Cc1nc(CNC2CCN(Cc3ccccc3)C2)sc1C (stereo unspecified)	100.1%
Cc1cccc(NCc2ncc(C(C)(C)C)o2)c1	-9.565%
CN(C)CC(=O)N1CCC2(CC(=O)N(c3cccc(C#N)c3)C2)C1.O=C(O)C(F)(F)F (stereo unspecified)	-33.33%
O=C(Nc1ccccc1)c1ccc2c(c1)C1(CCCCC1)CN2.O=C(O)C(F)(F)F	97.07%
c1cnnc(N2CCC(c3nnc(Cn4ccnc4)n3C3CC3)CC2)c1	-21.3%
CCc1ccc(C(=O)N2CCC(N(C)C(=O)OC(C)(C)C)C2)o1 (stereo unspecified)	6.844%
Cn1nccc1C(=O)N1CCCC2(CCN(c3ccsc3)C2=O)C1 (stereo unspecified)	-139.6%

Repeated from the top, 5 entries:

compound,percent effect
CCN1CC2(CCC1=O)CCN(Cc1cccc(OC(F)F)c1)CC2,-25.64%
[H][C@]12CC[C@]([H])(CN(c3ncccn3)C1)N(CCC(=O)NCc1ccco1)C2,-12.1%
CC(C)CS(=O)(=O)N1CCC2(CN(c3cccc(F)c3)C(=O)CN2C)C1.O=C(O)C(F)(F)F (stereo unspecified),-13.3%
CN(C)c1ccccc1CN1CCCC(N2CCCC2=O)C1 (stereo unspecified),5.118%
Cc1oc(C(=O)O)cc1S(=O)(=O)Nc1cc(Cl)ccc1F,-5.187%

Measurements from “University of Dundee, Small-Polar-MMV Screening Library” (2021), ChEMBL document CHEMBL3988442.